Taken from: PubChem BioAssay AID1224826 (NIAID, 2016)
The whole screen tested about 17,000 reagents; this is an unselected part. Of all reagents, about 1,110 (6.6%) are marked active. 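Active means lowered or raised reporter signal; replicate intensities are raw and not normalised per plate.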 The numbers tell different reagents against one gene apart. Not all columns of the deposit are shown.

Assay: 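Regulators of Tlr4 signalling leading to Tnf-alpha expression in macrophages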 (primary screen)
Cell system: RAW264.7 G9 macrophages from mouse bearing reporters for p65 (GFP) and the Tnf promoter (mCherry)
Reagent: siRNA pool against mouse genes, 100 nM
Time to read-out: 16 h of LPS stimulation, after 2 days of siRNA transfection
Treatment: bacterial lipopolysaccharide (Salmonella minnesota R595), 10 ng/ml
Read-out: 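Imaged Tnf reporter mCherry in nuclei, minus background, normalised per plate to the median and expressed as robust z-scores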
Reading the numbers: Tnf reporter robust z-score: higher = stronger Tnf promoter reporter signal after LPS
Call rule: 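Called active when robust z-score is at most -1.3, matching the median of the Tlr4 knock-down control, or over 3; control wells and wells with under 50 cells never active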
Calls: active = Tnf reporter clearly lowered or raised; inactive = no clear change in Tnf reporter

Hoxc12 (GeneID 15421) scored Tnf reporter robust z-score -0.12; fewer than 50 cells in well enough cells in well; inactive.
With knock-down of Sertad1 (GeneID 55942) the results were Tnf reporter robust z-score 0.49; fewer than 50 cells in well enough cells in well; inactive.
After knock-down of Cdk20 (GeneID 105278), the screen gave Tnf reporter robust z-score 0.32; fewer than 50 cells in well enough cells in well; inactive.
For Vmn1r5 (GeneID 171192), the values are Tnf reporter robust z-score 2.94; fewer than 50 cells in well enough cells in well; inactive.
Blnk (GeneID 17060) scored Tnf reporter robust z-score 0.07; fewer than 50 cells in well enough cells in well; inactive.
After knock-down of Hsd11b1 (GeneID 15483), the record shows Tnf reporter robust z-score 1.31; fewer than 50 cells in well enough cells in well; inactive.
Tsc22d4 (GeneID 78829) showed fewer than 50 cells in well fewer than 50 cells per well; well left out of calls; inactive.
Galk2 (GeneID 69976) showed Tnf reporter robust z-score -0.89; fewer than 50 cells in well enough cells in well; inactive.

2 entries already listed, arranged by “Tnf reporter robust z-score”, lowest first:
Hoxc12 (GeneID 15421) → Tnf reporter robust z-score: -0.12; fewer than 50 cells in well: enough cells in well; outcome: inactive
Sertad1 (GeneID 55942) → Tnf reporter robust z-score: 0.49; fewer than 50 cells in well: enough cells in well; outcome: inactive

The results go on.
For Adm (GeneID 11535) the deposit lists Tnf reporter robust z-score 2.62; fewer than 50 cells in well enough cells in well; inactive.
With knock-down of Mbnl3 (GeneID 171170), the screen gave Tnf reporter robust z-score -1.55; fewer than 50 cells in well enough cells in well; active.
With knock-down of Hao2 (GeneID 56185), the screen gave Tnf reporter robust z-score 0.2; fewer than 50 cells in well enough cells in well; inactive.
With knock-down of Ermard (GeneID 381062) #1 the results were Tnf reporter robust z-score 0.46; fewer than 50 cells in well enough cells in well; inactive.
After knock-down of Ermard (GeneID 381062) #2, the record shows Tnf reporter robust z-score 0.19; fewer than 50 cells in well enough cells in well; inactive.
Plpp2 (GeneID 50784) gave Tnf reporter robust z-score -1.04; fewer than 50 cells in well enough cells in well; inactive.
